Literature values, collected in patent US20030036531A1, “Use of lysophospholipids to inhibit mammalian phospholipase D” (Wisconsin Alumni Research Foundation, priority 2001, published 2003).
For at least one compound, name, drawing or mass did not settle the structure.

Target: T1, PLD1 (Homo sapiens, UniProt Q13393)
T1 sequence (Q13393 1-1074): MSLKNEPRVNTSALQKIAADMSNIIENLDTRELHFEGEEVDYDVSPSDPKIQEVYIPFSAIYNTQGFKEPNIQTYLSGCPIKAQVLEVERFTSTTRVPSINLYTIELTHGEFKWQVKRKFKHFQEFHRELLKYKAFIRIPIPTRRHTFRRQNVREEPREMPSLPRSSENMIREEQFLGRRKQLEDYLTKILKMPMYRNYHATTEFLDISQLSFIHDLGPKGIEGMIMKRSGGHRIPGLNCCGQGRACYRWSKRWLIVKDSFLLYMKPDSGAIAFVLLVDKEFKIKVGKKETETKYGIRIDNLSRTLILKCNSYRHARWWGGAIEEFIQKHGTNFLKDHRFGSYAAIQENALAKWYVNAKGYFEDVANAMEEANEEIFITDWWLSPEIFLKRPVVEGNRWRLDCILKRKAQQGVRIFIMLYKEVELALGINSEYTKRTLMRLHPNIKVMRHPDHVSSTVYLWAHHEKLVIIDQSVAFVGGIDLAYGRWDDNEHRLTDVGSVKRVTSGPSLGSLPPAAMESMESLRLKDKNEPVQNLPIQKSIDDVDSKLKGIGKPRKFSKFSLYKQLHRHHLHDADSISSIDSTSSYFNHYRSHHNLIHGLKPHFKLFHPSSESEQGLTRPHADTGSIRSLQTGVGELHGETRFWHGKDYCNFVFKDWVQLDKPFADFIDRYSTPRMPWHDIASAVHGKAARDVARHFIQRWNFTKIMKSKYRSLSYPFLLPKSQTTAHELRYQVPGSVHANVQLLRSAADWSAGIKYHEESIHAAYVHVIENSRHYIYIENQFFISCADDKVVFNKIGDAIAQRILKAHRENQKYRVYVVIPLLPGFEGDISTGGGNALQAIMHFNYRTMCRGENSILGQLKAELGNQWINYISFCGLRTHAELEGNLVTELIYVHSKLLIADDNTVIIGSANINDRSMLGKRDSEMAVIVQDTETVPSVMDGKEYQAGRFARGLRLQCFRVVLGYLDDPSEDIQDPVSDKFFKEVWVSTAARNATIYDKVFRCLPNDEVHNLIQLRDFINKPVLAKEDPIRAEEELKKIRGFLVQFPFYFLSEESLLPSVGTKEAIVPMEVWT
Settings: 10 μM, absence of Arf and PIP2; cited from earlier work

## CCCCCCCC/C=C\CCCCCCCC(=O)O [oleate, reference compound]
  inhibition of PLD1: dramatically inhibited
